In patent publication US20040116333A1 (ABGENOMICS COOPERATIEF U A, published 2004):
No constants are given. Whether binding was seen depends on the method and setting. Some binding calls cover weakened binding; strength is not graded here. Sequences can lack the tags named with a protein.

Biological target: T1, mouse P-selectin glycoprotein ligand-1 (PSGL-1), first designated T cell apoptosis inducing protein (TAIP) (mouse) (UniProt Q62170)
T1 sequence (looked up): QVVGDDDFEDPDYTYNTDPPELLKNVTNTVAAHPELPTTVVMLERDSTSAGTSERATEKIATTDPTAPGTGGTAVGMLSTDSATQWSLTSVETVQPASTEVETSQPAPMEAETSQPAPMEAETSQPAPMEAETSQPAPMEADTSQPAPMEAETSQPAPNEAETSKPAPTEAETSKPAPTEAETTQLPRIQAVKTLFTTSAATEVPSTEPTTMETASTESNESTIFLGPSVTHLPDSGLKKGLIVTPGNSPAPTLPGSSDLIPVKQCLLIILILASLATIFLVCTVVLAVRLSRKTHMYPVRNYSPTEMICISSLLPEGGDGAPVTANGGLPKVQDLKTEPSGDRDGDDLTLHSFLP
Assay: flow cytometry on Con A-activated mouse T cells, FITC-anti human IgG Fc detection

B1: recombinant mouse E-selectin/Fc chimera (R&D Systems) (Fc fusion, not shown: a dimerising Fc or GST)
chain (part 1 of 2): WYYNASSELMTYDEASAYCQRDYTHLVAIQNKEEINYLNSNLKHSPSYYWIGIRKVNNVWIWVGTGKPLTEEAQNWAPGEPNNKQRNEDCVEIYIQRTKDSGMWNDERCNKKKLALCYTASCTNASCSGHGECIETINSYTCKCHPGFLGPNCEQAVTCKPQEHPDYGSLNCSHPFGPFSYNSSCSFGCKRGYLPSSMETTVRCTSSGEWSAPAPACHVVECEALTHPAHGIRKCSSNPGSYPWNTTCTFDCVEGYRRVGAQNLQCTSSGIWDNETPSCKAVTCDAIPQPQNGFVSCSHSTAGELAFKSSCNFTCEQSFTLQGPAQVECSAQGQWTPQIPVCKAVQCEALSAPQQGNMKCLPSASGPFQNGSSCEFSCEEGFELKGSRRLQCGPRGEWDSKKPTCSAVKCDDVPRPQNGVMECAHATTGEFTYKSSCAFQCNEGFSLHGSAQLECTSQGKWTQEVPSCQVVQCPSLDVPGKMNMSCSGTAVFGTVCEFTCPDDWTLNGSAVLTCGATGRWSGMPPTCEAPVSPTRPIEGRMD
chain (part 2 of 2): HHHHHH
With B1 the binding was “binds”.
